The target in this assay is AliB (residues 26–652), oligopeptide-binding lipoprotein of the Ami system, without the lipobox segment (Streptococcus pneumoniae) (UniProt P0A4G0). In words: crystal structure; AliB incubated with an excess of synthetic peptide 2, 3 or 4 and co-crystallised; 0.1 M sodium acetate, 8% 2-propanol, 21% PEG4000; 2.29, 1.66 and 1.49 Å; closed conformation; both purified.

By UniProt entry, the sequences of proteins in these tests, tags left out. Residues count along the entry.
UniProt P0A4G0, residues 26-652: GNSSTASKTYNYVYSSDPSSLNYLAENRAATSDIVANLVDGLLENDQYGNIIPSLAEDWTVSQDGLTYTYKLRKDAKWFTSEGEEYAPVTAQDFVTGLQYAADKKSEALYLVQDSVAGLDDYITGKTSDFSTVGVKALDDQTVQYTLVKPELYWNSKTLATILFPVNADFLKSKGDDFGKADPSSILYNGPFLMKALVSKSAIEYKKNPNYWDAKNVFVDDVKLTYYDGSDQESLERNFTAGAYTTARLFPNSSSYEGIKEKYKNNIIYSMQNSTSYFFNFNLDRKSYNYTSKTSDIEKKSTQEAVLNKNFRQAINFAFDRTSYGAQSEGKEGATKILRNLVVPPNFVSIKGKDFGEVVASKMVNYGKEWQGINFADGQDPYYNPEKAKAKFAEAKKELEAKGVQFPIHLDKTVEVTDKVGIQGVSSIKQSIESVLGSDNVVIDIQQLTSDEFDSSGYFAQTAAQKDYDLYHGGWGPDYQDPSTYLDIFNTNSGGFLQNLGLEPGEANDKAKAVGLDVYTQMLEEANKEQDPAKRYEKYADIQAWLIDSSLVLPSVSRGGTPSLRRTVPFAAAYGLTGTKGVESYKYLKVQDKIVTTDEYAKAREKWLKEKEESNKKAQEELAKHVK

These results are taken from paper PMC11192437, “Molecular and structural basis of oligopeptide recognition by the Ami transporter system in pneumococci” (PLOS Pathogens, 2024).

No constants are given. Whether binding was seen depends on the method and setting. Some binding calls cover weakened binding; strength is not graded here.

B1: Peptide 2 (…) (peptide)
peptide: AIQSEKARKHN
Turning to B1, the binding result is “binds”.
